Only a part is listed here, and it is no random draw. Calls are pooled over several reports, among them a noisy single-well screen. The list shows a part of the results.
Columns and labels:
Settings in all cases: stereoisomer not certain
[1] = test system: T1, O10G3
T1 sequence (whole entry): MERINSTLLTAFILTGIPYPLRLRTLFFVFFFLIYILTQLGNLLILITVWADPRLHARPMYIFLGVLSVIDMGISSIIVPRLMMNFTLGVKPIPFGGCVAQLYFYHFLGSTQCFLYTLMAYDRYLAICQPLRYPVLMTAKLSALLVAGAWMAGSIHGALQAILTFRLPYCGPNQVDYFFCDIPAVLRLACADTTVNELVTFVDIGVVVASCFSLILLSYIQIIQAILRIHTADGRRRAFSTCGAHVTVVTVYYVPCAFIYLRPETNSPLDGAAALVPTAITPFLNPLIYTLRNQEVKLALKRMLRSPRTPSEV
Outline: (§1)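 Values were gathered from published papers (main text and supplementary material), with extra details requested from the original authors when needed, and checked for typos and inconsistencies. Each receptor–molecule pair is called responsive (active) if the original authors judged the measured signal statistically different from baseline, and non-responsive (inactive) otherwise. Assay methods varied by source, often transient mammalian cell-line luciferase assays. Recorded details include cell line, G-protein, co-transfected protein and tags.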

Chains of the proteins cited; added tags and fusions are not shown. A line that says so, or that is headed by a name, gives the form on record, which may keep a tag or linker.
O10G7, as listed by the source: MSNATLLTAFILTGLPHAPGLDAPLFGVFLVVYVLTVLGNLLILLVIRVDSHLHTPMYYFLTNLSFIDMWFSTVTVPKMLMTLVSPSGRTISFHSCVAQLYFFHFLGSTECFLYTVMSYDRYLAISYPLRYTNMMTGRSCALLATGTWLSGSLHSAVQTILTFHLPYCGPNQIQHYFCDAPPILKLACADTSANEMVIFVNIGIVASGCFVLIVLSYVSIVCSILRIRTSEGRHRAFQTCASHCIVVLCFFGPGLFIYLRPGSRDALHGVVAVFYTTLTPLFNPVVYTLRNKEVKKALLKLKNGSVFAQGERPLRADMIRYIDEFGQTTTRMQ
O10G4, as listed by the source: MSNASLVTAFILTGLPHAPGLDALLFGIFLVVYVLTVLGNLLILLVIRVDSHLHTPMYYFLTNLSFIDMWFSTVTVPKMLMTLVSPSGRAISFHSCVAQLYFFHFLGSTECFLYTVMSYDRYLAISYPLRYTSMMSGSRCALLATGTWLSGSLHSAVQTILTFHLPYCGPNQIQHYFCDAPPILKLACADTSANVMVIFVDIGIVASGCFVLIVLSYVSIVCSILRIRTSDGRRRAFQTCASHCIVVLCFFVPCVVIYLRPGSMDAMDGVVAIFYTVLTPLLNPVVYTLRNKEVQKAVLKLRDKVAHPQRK

[2] = test system: O10G4
Outline: as §1

[3] = test system: O10G4; remark: listed apart in the source
Outline: as §1

[4] = test system: O10G4; remark: listed apart in the source
Outline: as §1

[5] = test system: T2, O10G4; remark: listed apart in the source
T2 sequence (whole entry): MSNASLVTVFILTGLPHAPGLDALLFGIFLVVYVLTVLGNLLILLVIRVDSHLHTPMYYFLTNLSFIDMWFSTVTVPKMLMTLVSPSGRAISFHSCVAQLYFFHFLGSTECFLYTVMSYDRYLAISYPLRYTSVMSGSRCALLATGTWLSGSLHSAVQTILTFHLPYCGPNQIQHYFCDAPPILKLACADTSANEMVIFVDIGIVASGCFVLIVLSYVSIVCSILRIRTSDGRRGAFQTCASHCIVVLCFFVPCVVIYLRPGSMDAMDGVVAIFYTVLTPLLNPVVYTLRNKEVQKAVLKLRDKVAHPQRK
Outline: as §1

[6] = test system: T3, O10G9
T3 sequence (whole entry): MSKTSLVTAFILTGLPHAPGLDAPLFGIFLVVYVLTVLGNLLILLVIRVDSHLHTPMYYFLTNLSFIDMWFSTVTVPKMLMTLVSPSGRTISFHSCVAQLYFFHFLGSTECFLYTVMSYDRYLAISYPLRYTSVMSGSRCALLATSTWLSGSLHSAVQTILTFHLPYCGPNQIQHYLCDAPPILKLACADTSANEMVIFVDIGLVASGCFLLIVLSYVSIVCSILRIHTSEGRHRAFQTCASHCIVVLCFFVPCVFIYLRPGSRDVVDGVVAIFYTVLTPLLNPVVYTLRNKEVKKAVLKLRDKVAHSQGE
Outline: as §1

[7] = test system: T4, O10H2
T4 sequence (whole entry): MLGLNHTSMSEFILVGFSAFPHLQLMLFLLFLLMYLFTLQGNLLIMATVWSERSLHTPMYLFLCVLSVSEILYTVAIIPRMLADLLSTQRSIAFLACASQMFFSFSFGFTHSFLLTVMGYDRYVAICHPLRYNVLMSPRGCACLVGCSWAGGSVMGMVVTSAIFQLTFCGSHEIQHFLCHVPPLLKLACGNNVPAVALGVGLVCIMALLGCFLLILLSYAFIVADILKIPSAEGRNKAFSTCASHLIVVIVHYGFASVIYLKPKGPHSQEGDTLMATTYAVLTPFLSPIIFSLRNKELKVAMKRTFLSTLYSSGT
Outline: as §1

[8] = test system: T5, O10H5
T5 sequence (whole entry): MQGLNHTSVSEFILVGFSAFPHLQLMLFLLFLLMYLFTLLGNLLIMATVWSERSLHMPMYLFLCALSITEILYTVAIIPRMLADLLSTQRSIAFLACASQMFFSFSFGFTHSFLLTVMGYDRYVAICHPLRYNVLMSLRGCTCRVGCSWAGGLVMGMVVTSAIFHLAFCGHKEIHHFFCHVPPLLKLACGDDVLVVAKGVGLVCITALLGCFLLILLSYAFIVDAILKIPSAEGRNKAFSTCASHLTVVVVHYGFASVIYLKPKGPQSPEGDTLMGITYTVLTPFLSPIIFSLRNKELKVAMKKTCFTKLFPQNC
Outline: as §1

[9] = test system: T6, O10J1
T6 sequence (whole entry): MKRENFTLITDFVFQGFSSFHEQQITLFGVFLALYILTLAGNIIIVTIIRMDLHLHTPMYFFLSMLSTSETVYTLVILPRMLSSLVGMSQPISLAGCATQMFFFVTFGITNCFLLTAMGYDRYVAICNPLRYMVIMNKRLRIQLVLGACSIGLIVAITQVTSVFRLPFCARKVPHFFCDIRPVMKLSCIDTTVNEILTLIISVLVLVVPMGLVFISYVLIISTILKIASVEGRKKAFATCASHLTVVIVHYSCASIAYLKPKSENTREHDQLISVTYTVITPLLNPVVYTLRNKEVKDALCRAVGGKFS
Outline: as §1

[10] = test system: O10G7
Outline: as §1

SMILES | odorant receptor agonist call [1] | odorant receptor agonist call [2] | odorant receptor agonist call [3] | odorant receptor agonist call [4] | odorant receptor agonist call [5] | odorant receptor agonist call [6] | odorant receptor agonist call [7] | odorant receptor agonist call [8] | odorant receptor agonist call [9] | odorant receptor agonist call [10]
COc1cc(C=O)ccc1O | active | inactive | active | active | active | inactive | inactive | inactive | inactive | 
C=CCc1ccc(OC)c(OC)c1 | inactive |  |  |  | active | inactive | inactive | inactive | inactive | 
C=CCc1ccc(OC(C)=O)c(OC)c1 | inactive |  |  |  | inactive | inactive | inactive | inactive | active | 
CC(=O)OCC=C(C)CCC=C(C)C | inactive |  |  |  | active | inactive | inactive | inactive | active | 
CC1CCC(C(C)C)C(O)C1 (stereo not drawn) | inactive |  |  |  | inactive | inactive | active | inactive | inactive | 
COC(=O)c1ccccc1O | inactive |  |  |  | inactive | inactive | inactive | inactive | inactive | 
CC(=O)C(C)=O | inactive |  |  |  | inactive | inactive | inactive | inactive | inactive | 
CC(C)CCC(=O)O | inactive |  |  |  | active | inactive | inactive | inactive | inactive | 
CC1COCc2cc3c(cc21)C(C)(C)C(C)C3(C)C (stereo not drawn) | active |  |  |  | inactive | active | active | active | active | 
CCCCCOC(C)=O | inactive |  |  |  | inactive | inactive | inactive | inactive | inactive | active
CCCC(=O)O | inactive |  |  |  | active | inactive | inactive | inactive | inactive | 
c1cnccn1 | inactive |  |  |  | inactive | inactive | inactive | inactive | inactive | 
CCCCCCCCOC(C)=O | inactive |  |  |  | inactive | inactive | inactive | inactive | inactive | 
CCCCCCCCCCC=O | inactive |  |  |  | inactive | inactive | inactive | inactive | inactive | 
CCCCCCCC=O | inactive |  |  |  | inactive | inactive | inactive | inactive | inactive | 
COc1cc(C)ccc1O | inactive |  |  |  | active | inactive | inactive | inactive | inactive | 
CCCCCCCOC(C)=O | inactive |  |  |  | active | inactive | inactive | inactive | inactive | 
COc1ccccc1O | inactive |  |  |  | active | active | inactive | inactive | inactive | 
c1ccc(Oc2ccccc2)cc1 | inactive |  |  |  | inactive | inactive | inactive | inactive | inactive | 
CC(C)=CCCC(C)=CC=O | inactive |  |  |  | active | inactive | inactive | inactive | inactive | 
CCCCCC(=O)O | inactive |  |  |  | inactive | inactive | inactive | inactive | inactive | 
CC(C)C=O | inactive |  |  |  | inactive | inactive | inactive | inactive | inactive | 
CCCCCCCC=CC=O | inactive |  |  |  | inactive | inactive | inactive | inactive | inactive | 
CC1=CCC(C(C)(C)O)CC1 (stereo not drawn) | inactive |  |  |  | inactive | inactive | inactive | inactive | inactive | 
CC12CCC(C1)C(C)(C)C2=O (stereo not drawn) | inactive |  |  |  | inactive | inactive | inactive | inactive | inactive | 
CC12C=CCC1C1CCC3CC(=O)CCC3(C)C1CC2 (stereo not drawn) | inactive |  |  |  | inactive | active | inactive | inactive | inactive | 

SMILES | odorant receptor agonist call [1] | odorant receptor agonist call [2] | odorant receptor agonist call [3] | odorant receptor agonist call [4] | odorant receptor agonist call [5] | odorant receptor agonist call [6] | odorant receptor agonist call [7] | odorant receptor agonist call [8] | odorant receptor agonist call [9] | odorant receptor agonist call [10]
O=C1CCCCCCCCCCCCCCO1 | inactive |  |  |  | inactive | inactive | inactive | inactive | inactive | 
O=C1CCCCC1 | inactive |  |  |  |  | inactive | inactive | inactive |  | 
CCC=CCCO | inactive |  |  |  | inactive | inactive | inactive | inactive | inactive | 
CCCCCC(C)=O | active |  |  |  |  | inactive | inactive | inactive |  | 
CC(=O)OC(C)(C)C1CC=C(C)CC1 (stereo not drawn) | inactive |  |  |  | inactive | inactive | inactive | inactive | inactive | 
CC(=O)OC1CC2CCC1(C)C2(C)C (stereo not drawn) | inactive |  |  |  | inactive | inactive | inactive | inactive | inactive | 
CC=Cc1ccc(O)c(OC)c1 | active |  |  |  | active | active | inactive | inactive | inactive | 
CC(C)(C)c1ccc(CCC=O)cc1 | inactive |  |  |  | inactive | inactive | inactive | inactive | inactive | 
O=CCc1ccccc1 | inactive |  |  |  | inactive | inactive | inactive | inactive | inactive | 
COC(=O)c1ccccc1 | inactive |  |  |  |  | inactive | inactive | inactive |  | 
CC(C)(O)CCCC1=CCC(C=O)CC1 (stereo not drawn) |  |  |  |  | inactive |  |  |  | inactive | 
CC(C)C(=O)O | inactive |  |  |  | inactive | inactive | inactive | inactive | inactive | 
O=C1CCCCCCCCCCCC(=O)OCCO1 | inactive |  |  |  | active | inactive | inactive | inactive | active | 
CCCCCCOC(=O)CCC | inactive |  |  |  | inactive | inactive | inactive | inactive | inactive | 
CC1=NC(C)SC1C (stereo not drawn) | active |  |  |  |  | inactive | inactive | inactive |  | 
CC12C=CCC1C1CCC3=CC(=O)CCC3(C)C1CC2 (stereo not drawn) | inactive |  |  |  | active | inactive | inactive | inactive | inactive | 
CC(=O)c1ccccc1 | inactive |  |  |  |  | inactive | inactive | inactive |  | active
C=C(C)C1CCC2=CC(=O)CC(C)C2(C)C1 (stereo not drawn) |  |  |  |  | active |  |  |  | active | 
CCC1(O)C2(C)CCC(C2)C1(C)C (stereo not drawn) | inactive |  |  |  | inactive | inactive | inactive | inactive | inactive | 
CC12CCC(CC1)C(C)(C)O2 | inactive |  |  |  | inactive | inactive | inactive | inactive | inactive | 
CC(C)CC(=O)O | inactive |  |  |  | inactive | inactive | inactive | inactive | inactive | 
C=CCSCC=C | inactive |  |  |  | inactive | inactive | inactive | inactive | inactive | 
C=CC(C)(O)CCC=C(C)C (stereo not drawn) | inactive |  |  |  | inactive | inactive | inactive | inactive | inactive | 
CCCCCCCCCC=O | inactive |  |  |  | inactive | inactive | inactive | inactive | inactive | 
CCCCO | inactive |  |  |  | inactive | inactive | inactive | inactive | inactive | 

Not a retest: an excerpt of the list.
SMILES | odorant receptor agonist call [1] | odorant receptor agonist call [2] | odorant receptor agonist call [3] | odorant receptor agonist call [4] | odorant receptor agonist call [5] | odorant receptor agonist call [6] | odorant receptor agonist call [7] | odorant receptor agonist call [8] | odorant receptor agonist call [9] | odorant receptor agonist call [10]
CC1=NC(C)SC1C (stereo not drawn) | active |  |  |  |  | inactive | inactive | inactive |  | 
CC12C=CCC1C1CCC3=CC(=O)CCC3(C)C1CC2 (stereo not drawn) | inactive |  |  |  | active | inactive | inactive | inactive | inactive | 
CC(=O)c1ccccc1 | inactive |  |  |  |  | inactive | inactive | inactive |  | active
C=C(C)C1CCC2=CC(=O)CC(C)C2(C)C1 (stereo not drawn) |  |  |  |  | active |  |  |  | active | 
CCC1(O)C2(C)CCC(C2)C1(C)C (stereo not drawn) | inactive |  |  |  | inactive | inactive | inactive | inactive | inactive | 
CC12CCC(CC1)C(C)(C)O2 | inactive |  |  |  | inactive | inactive | inactive | inactive | inactive | 
CC(C)CC(=O)O | inactive |  |  |  | inactive | inactive | inactive | inactive | inactive | 
C=CCSCC=C | inactive |  |  |  | inactive | inactive | inactive | inactive | inactive | 
C=CC(C)(O)CCC=C(C)C (stereo not drawn) | inactive |  |  |  | inactive | inactive | inactive | inactive | inactive | 
